Laboratory results reported in US20260256812A1, “COMPOSITION COMPRISING A COMBINATION OF A CORTICOSTEROID AND A FLAVONOID FOR USE IN TREATING EYE-RELATED DISEASES” (priority 2023, published 2026).
At least one structure is not confirmed: it was looked up by name or label, or the drawing left a doubt. Some of these results come from one statement about several compounds together.

Columns and labels:
[1] = test system: IL-6; experiment: IL-6 ELISA on ARPE-19 cell supernatants; type: cell-based, human; conditions: 10 μg/mL LPS 24 hr, then 24 hr treatment
Method: The human IL-6, IL-8, MCP-1, and VEGF-C ELISA kits were used according to the manufacturer's protocol to investigate the cytokine secretions in the cell supernatants. Cells were seeded onto a 24-well plate at a seeding density of 3×10^4 cells/well with 500 μL of cell culture media and cultured for 24 hr. Cells were kept overnight in low serum media (with 1% FBS) to synchronise their growth phase before stimulating inflammation. […] Upon stimulation, cells were exposed to various treatments of drugs alone and in combination for 24 hr. After the treatment duration media conditioned by treated cells were collected and analysed for the cytokines and VEGF-C secretions using the ELISA kits. ELISA was performed according to the manufacturer's protocol.

[2] = test system: MCP-1; experiment: MCP-1 ELISA on LPS-stimulated ARPE-19 cells; type: cell-based, human; conditions: 10 μg/mL LPS 24 hr, then 24 hr treatment; TA 10 to 100 μM
[3] = DPPH antioxidant assay; conditions: TA 75, 100 μM; QCN 15, 20 μM; 30 min
Method: The DPPH assay was performed in a 96-well plate where 20 μL of methanolic DPPH solution was added to 180 μL of methanolic solutions of treatments. Based on the outcome from anti-inflammatory studies, the higher concentrations of TA and QCN, both individually and in combination were investigated for antioxidant activity (TA 75, 100 μM and QCN 15, 20 μM). This reaction mixture was incubated for 30 min in darkness at room temperature and the absorbance was measured at 517 nm using a microplate reader.

[4] = test system: intracellular ROS in ARPE-19 cells; experiment: DCFH-DA intracellular ROS assay by flow cytometry; type: cell-based, human; conditions: 300 μM H2O2; TA 75, 100 μM; QCN 15, 20 μM; individually and in combination, 24 hr
[5] = test system: ARPE-19 cells; experiment: Scratch (wound healing, cell migration) assay; type: cell-based, human; conditions: QCN 20 μM, TA 100+QCN 20 μM, 1% FBS
Method: For the scratch or wound healing assay cells were seeded onto six-well plates with a seeding density of 25×10^4 cells/well. Upon reaching 80-90% confluency, a sterile 200 μL pipette tip was used to scrape the confluent monolayer of cells in a horizontal line. After creating the scratch, cell debris was washed with PBS and the cell culture media containing treatments was added to each well. The scratch was photographed using an Olympus EP50 microscope at 10× magnification at 0, 6, 9, 24, 27 and 30 h. “Image J” software was used to analyse the width of the scratch.
The major cause of irreversible vision loss is the exudative form of AMD, which is characterized by CNV where the newly formed blood vessels protrude from the choroid to the retina through Bruch's membrane. Even though the mechanism of CNV is not fully understood, some pathological studies point to the connection between CNV and sub-RPE deposits. Additionally, focal inflammation leads to focal thinning and damage of Bruch's membrane in patients of AMD. RPE cells are essential for the maintenance of photoreceptor cells as they provide nutrients. But the contact between RPE and photoreceptor cells was disrupted due to the accumulation of sub-RPE deposits and the interference of branched blood vessels. […] Upon seeding 25×10^4 cells/well and reaching around 90% confluency, the wounds were created and measured using image ‘J’ software. […]

SMILES	IL-6 expression compared to LPS stimulated cells [1]	expression/secretion of MCP-1 [2]	anti-oxidant effect on DPPH free radical [3]	generated ROS (MFI) compared to control stimulated stained cells [4]	migration of the cells ([5]; TA 100 μM)	time point by which wound closure was observed [5] [h]
CC1(C)O[C@@H]2C[C@H]3[C@@H]4CCC5=CC(=O)C=C[C@]5(C)[C@@]4(F)[C@@H](O)C[C@]3(C)[C@]2(C(=O)CO)O1 [TA, triamcinolone acetonide]	consistently lowered	Dose-dependent decrease	minimal anti-oxidant effect	did not lower the ROS levels	did not enhance any cell migration	
O=c1c(O)c(-c2ccc(O)c(O)c2)oc2cc(O)cc(O)c12 [QCN, quercetin]						≤ 24
